Reference: paper PMC5809584, “Plastic roles of phenylalanine and tyrosine residues of TLS/FUS in complex formation with the G-quadruplexes of telomeric DNA and TERRA”
For at least one entry, the source does not settle the construct or the ends of the probe. At least one verdict was read from the data and is not stated in words by the source. Where a protein sequence is shown, tags need not be part of it.

Biological target: T1, RGG3 of TLS/FUS (UniProt P35637)
T1 sequence (looked up, limits assumed): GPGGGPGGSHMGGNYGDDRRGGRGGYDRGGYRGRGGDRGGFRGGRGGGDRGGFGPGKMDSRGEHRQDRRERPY
Assay: fluorescence anisotropy
Conditions: 450 nM RNA, 1:0 to 1:3; FA: 20 C (nucleic acids annealed in 20 mM K-phosphate pH 6.2, 50 mM KCl); recombinant protein; label: 5' FITC

UAGGGUUAGGGU [FITC-TERRA12]
binding result: binds
